Assay results: the supplement of paper PMC7666118
This is one part of the list.

Amino acid sequences for entries named in this document (tags omitted). A change or cut given only in a name is not applied to a line headed by its entry.
UniProt Q9UK59: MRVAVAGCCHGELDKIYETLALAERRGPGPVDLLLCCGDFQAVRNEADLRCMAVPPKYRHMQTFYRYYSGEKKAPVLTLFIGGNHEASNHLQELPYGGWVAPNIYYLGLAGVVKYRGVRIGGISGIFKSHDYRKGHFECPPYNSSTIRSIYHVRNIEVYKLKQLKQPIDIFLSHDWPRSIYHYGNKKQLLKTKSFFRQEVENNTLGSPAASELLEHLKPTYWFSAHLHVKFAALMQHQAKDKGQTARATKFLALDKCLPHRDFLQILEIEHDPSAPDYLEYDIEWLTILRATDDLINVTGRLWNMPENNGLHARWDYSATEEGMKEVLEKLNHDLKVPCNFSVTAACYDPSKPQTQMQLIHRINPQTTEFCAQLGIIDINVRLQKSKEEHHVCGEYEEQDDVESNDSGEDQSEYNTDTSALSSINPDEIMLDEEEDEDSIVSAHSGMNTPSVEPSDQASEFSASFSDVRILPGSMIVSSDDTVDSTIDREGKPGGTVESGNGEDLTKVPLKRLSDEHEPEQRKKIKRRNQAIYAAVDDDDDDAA
UniProt P35606: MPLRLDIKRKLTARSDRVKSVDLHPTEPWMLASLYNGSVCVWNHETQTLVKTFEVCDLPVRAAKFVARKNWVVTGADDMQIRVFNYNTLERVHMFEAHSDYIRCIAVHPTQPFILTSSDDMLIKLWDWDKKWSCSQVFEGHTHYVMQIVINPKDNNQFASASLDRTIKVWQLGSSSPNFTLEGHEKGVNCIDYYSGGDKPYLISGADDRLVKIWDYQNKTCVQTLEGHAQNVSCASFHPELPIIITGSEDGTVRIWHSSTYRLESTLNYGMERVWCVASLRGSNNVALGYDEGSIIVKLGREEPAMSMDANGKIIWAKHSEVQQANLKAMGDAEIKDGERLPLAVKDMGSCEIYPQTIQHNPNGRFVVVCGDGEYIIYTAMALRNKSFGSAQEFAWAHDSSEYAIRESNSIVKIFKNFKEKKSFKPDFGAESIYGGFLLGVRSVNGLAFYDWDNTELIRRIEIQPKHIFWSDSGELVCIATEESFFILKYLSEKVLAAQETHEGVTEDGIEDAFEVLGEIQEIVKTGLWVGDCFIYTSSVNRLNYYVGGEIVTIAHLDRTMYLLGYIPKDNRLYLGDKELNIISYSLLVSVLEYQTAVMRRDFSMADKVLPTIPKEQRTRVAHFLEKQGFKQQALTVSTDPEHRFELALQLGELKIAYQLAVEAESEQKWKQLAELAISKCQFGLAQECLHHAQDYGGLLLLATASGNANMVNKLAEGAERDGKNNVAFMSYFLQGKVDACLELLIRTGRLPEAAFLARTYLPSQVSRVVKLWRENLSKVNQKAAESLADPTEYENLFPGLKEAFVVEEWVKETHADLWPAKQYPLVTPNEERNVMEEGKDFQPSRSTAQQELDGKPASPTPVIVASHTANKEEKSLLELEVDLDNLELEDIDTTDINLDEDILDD
UniProt O94760: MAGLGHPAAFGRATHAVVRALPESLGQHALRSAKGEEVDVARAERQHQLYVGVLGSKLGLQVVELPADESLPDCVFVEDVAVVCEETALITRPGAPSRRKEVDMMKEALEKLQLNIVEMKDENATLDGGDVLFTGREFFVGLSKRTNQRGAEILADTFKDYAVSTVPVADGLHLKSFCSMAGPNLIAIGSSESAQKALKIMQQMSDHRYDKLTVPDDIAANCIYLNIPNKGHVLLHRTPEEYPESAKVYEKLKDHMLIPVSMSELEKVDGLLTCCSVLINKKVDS
UniProt Q7L014: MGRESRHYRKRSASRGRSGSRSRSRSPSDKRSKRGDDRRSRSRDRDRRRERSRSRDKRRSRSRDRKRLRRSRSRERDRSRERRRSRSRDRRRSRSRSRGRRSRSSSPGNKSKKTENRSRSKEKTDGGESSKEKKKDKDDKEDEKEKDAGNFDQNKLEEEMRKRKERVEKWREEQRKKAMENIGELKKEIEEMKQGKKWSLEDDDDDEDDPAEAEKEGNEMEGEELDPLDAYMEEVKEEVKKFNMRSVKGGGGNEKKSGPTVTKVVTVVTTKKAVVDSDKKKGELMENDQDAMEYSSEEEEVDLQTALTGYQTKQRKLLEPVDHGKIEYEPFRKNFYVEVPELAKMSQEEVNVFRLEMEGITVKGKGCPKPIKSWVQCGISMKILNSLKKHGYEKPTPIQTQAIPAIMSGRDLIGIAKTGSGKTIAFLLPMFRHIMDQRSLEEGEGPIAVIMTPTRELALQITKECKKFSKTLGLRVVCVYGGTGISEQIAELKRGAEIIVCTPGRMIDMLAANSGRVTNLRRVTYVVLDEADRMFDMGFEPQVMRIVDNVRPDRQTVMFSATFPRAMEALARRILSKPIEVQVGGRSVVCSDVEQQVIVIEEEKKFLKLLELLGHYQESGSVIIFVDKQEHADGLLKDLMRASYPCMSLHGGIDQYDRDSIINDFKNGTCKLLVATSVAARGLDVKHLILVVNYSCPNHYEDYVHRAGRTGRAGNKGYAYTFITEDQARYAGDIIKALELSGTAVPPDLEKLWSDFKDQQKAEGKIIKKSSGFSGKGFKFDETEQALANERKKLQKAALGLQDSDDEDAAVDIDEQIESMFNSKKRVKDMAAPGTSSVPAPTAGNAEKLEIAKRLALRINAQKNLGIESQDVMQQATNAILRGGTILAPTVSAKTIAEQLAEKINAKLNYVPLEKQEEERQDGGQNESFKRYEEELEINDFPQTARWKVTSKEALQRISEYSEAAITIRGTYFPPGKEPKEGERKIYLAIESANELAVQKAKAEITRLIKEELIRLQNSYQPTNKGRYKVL
UniProt O95865: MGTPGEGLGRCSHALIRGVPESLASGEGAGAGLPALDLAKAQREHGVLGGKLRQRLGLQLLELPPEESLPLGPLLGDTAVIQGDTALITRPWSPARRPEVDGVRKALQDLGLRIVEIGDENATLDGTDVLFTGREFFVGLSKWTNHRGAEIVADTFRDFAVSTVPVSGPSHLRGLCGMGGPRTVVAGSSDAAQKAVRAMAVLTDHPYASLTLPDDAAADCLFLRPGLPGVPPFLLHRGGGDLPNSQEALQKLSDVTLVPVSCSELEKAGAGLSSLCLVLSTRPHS
UniProt Q6UXH1: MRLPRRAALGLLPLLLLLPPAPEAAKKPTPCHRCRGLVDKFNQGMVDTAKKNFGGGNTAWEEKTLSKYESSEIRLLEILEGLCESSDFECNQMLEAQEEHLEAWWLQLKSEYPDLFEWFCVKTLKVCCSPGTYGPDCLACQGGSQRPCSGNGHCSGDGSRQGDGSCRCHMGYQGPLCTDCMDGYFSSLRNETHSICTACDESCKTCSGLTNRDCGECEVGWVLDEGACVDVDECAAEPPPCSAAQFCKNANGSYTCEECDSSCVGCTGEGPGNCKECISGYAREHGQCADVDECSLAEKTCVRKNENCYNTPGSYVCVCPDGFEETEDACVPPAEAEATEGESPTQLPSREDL
UniProt Q6UWP2: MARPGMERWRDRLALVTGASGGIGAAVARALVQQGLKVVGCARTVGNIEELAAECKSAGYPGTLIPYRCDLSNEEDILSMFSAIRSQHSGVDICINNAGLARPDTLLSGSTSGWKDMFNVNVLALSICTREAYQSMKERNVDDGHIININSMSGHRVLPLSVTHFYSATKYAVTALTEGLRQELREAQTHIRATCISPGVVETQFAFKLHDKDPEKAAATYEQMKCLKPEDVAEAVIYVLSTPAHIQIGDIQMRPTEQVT
UniProt P33240: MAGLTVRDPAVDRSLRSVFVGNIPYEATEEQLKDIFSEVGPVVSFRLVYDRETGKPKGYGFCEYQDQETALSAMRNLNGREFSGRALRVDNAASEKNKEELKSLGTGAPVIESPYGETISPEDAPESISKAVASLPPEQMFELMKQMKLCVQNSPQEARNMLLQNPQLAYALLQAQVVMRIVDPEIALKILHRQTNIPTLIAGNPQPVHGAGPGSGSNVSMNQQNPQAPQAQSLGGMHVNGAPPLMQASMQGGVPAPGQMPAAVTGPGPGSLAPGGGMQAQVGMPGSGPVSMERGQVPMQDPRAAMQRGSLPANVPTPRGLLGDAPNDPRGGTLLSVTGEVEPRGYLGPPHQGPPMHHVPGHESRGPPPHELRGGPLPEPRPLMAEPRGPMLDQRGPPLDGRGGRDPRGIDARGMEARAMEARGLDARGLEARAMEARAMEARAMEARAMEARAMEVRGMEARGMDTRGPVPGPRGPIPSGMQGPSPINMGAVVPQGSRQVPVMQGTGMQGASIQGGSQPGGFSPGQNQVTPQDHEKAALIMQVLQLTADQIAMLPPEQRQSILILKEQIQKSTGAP
UniProt O43293: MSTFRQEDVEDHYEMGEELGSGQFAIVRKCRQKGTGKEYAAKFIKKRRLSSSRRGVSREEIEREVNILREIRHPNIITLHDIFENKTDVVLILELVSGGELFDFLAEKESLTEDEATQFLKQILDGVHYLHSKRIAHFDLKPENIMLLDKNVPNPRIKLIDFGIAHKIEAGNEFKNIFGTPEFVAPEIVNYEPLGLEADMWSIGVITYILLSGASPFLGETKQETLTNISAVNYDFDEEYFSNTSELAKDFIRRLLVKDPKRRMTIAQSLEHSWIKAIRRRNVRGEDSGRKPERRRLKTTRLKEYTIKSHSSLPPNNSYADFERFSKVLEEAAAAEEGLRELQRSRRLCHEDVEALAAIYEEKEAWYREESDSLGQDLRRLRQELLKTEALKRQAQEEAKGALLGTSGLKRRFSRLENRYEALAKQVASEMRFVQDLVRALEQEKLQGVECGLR
UniProt Q8N8Z6: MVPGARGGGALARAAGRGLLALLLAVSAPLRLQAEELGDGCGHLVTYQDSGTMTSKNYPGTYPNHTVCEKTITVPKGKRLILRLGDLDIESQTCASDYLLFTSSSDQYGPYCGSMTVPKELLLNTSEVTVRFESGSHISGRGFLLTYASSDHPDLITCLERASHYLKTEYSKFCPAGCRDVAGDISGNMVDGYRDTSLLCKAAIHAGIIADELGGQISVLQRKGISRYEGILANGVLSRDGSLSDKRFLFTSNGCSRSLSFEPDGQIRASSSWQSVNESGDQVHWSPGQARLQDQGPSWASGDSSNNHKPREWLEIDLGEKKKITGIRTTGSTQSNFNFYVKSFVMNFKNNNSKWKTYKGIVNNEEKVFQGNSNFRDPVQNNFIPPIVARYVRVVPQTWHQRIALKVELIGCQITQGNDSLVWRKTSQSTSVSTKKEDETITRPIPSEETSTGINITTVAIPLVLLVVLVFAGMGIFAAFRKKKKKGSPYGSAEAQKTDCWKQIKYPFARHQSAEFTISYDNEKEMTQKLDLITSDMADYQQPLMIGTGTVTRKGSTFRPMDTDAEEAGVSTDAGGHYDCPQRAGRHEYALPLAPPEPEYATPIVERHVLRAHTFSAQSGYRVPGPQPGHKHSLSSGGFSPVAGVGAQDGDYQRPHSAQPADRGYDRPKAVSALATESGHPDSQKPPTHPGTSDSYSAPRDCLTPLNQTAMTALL
UniProt P23219, whole entry: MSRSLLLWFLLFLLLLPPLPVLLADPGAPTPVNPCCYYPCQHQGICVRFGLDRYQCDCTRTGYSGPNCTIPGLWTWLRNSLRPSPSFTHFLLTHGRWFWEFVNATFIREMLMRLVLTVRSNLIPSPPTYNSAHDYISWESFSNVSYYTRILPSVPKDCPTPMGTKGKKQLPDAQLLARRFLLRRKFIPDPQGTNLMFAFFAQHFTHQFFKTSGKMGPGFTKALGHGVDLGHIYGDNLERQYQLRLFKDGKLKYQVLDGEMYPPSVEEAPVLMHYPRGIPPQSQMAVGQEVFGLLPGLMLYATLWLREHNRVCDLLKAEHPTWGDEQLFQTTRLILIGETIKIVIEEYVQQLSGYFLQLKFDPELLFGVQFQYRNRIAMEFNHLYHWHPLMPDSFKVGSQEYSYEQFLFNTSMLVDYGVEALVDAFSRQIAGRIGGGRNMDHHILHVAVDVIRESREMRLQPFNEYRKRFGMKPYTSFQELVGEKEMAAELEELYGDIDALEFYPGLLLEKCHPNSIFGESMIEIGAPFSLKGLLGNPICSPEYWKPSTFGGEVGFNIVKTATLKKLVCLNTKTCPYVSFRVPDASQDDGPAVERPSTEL
UniProt Q9NPI6: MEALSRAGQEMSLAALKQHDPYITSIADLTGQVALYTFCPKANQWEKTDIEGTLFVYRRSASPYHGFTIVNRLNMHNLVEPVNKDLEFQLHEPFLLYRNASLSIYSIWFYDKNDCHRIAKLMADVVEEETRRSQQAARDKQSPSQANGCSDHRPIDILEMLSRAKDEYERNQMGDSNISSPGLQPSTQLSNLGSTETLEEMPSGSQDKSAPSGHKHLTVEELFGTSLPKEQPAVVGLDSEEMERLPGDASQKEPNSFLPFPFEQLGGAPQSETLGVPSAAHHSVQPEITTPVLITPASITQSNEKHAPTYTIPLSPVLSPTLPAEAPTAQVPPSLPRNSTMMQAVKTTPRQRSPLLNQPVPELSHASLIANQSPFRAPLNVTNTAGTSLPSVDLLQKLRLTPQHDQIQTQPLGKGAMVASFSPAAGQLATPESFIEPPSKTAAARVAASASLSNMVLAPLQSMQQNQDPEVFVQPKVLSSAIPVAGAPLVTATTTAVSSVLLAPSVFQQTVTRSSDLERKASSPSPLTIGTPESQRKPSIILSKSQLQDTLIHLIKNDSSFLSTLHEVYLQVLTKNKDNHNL

Compound: COc1ccc(Cn2ccc3ccc(C(=O)NO)cc32)cc1
Assay: dose-dependent thermal stabilisation call (2D-TPP, DLPTP, 10% FDR) (binary (1 = stabilised)); higher = stabilised by the compound
Conditions: system: HL-60 intact cells; concentration range 0.04-10 µM

Q: For DDX10 (UniProt Q13206), which “dose-dependent thermal stabilisation call” value is on record?
A: The value was inactive: 0.

Q: For DBR1 (UniProt Q9UK59), which “dose-dependent thermal stabilisation call” value is on record?
A: Its value is active: 1.

Q: How did the “dose-dependent thermal stabilisation call” value turn out when DACH1 (UniProt Q9UI36) was run?
A: The value was inactive: 0.

Q: Which “dose-dependent thermal stabilisation call” value does the source give for CTDSPL2 (UniProt Q05D32) here?
A: The value was inactive: 0.

Q: With CXXC1 (UniProt Q9P0U4) as the target, how does the “dose-dependent thermal stabilisation call” value read?
A: The value was inactive: 0.

Q: How did the “dose-dependent thermal stabilisation call” value turn out when CTSB (UniProt P07858) was run?
A: The value was inactive: 0.

Q: With DARS2 (UniProt Q6PI48) as the target, how does the “dose-dependent thermal stabilisation call” value read?
A: Its value is active: 1.

Q: For DDX41 (UniProt Q9UJV9), which “dose-dependent thermal stabilisation call” value is on record?
A: Its value is inactive: 0.

Q: How did the “dose-dependent thermal stabilisation call” value turn out when COPB2 (UniProt P35606) was run?
A: The value was inactive: 0.

Q: DDAH1 (UniProt O94760) was tested. Which “dose-dependent thermal stabilisation call” value did it give?
A: The value was inactive: 0.

Q: How did the “dose-dependent thermal stabilisation call” value turn out when DBN1 (UniProt Q16643) was run?
A: The value was inactive: 0.

Q: How did the “dose-dependent thermal stabilisation call” value turn out when DDX46 (UniProt Q7L014) was run?
A: Its value is inactive: 0.

Q: How did the “dose-dependent thermal stabilisation call” value turn out when CYB5R1 (UniProt Q9UHQ9) was run?
A: Its value is inactive: 0.

Q: For COX3, which “dose-dependent thermal stabilisation call” value is on record?
A: Its value is inactive: 0.

Q: CWC15 (UniProt Q9P013) was tested. Which “dose-dependent thermal stabilisation call” value did it give?
A: Its value is inactive: 0.

Q: Which “dose-dependent thermal stabilisation call” value does the source give for COPS7B (UniProt Q9H9Q2) here?
A: The value was inactive: 0.

Q: How did the “dose-dependent thermal stabilisation call” value turn out when CUL5 (UniProt Q93034) was run?
A: The value was inactive: 0.

Q: How did the “dose-dependent thermal stabilisation call” value turn out when COX7A2 (UniProt P14406) was run?
A: Its value is inactive: 0.

Q: With COMMD9 (UniProt Q9P000) as the target, how does the “dose-dependent thermal stabilisation call” value read?
A: Its value is inactive: 0.

Q: For DCP1B (UniProt Q8IZD4), which “dose-dependent thermal stabilisation call” value is on record?
A: Its value is inactive: 0.

Q: CORO1C (UniProt Q9ULV4) was tested. Which “dose-dependent thermal stabilisation call” value did it give?
A: Its value is inactive: 0.

Q: How did the “dose-dependent thermal stabilisation call” value turn out when COQ5 (UniProt Q5HYK3) was run?
A: Its value is inactive: 0.

Q: CTSS (UniProt P25774) was tested. Which “dose-dependent thermal stabilisation call” value did it give?
A: The value was inactive: 0.

Q: For DGKZ (UniProt Q13574), which “dose-dependent thermal stabilisation call” value is on record?
A: The value was inactive: 0.

Q: How did the “dose-dependent thermal stabilisation call” value turn out when DDAH2 (UniProt O95865) was run?
A: Its value is inactive: 0.

Q: Which “dose-dependent thermal stabilisation call” value does the source give for CYFIP2 (UniProt Q96F07) here?
A: The value was inactive: 0.

Q: How did the “dose-dependent thermal stabilisation call” value turn out when CRELD2 (UniProt Q6UXH1) was run?
A: The value was inactive: 0.

Q: For DHRS11 (UniProt Q6UWP2), which “dose-dependent thermal stabilisation call” value is on record?
A: Its value is inactive: 0.

Q: For COMMD7 (UniProt Q86VX2), which “dose-dependent thermal stabilisation call” value is on record?
A: Its value is inactive: 0.

Q: With CSTF2 (UniProt P33240) as the target, how does the “dose-dependent thermal stabilisation call” value read?
A: Its value is inactive: 0.

Q: Which “dose-dependent thermal stabilisation call” value does the source give for CRY1 (UniProt Q16526) here?
A: Its value is inactive: 0.

Q: For COPA (UniProt P53621), which “dose-dependent thermal stabilisation call” value is on record?
A: The value was inactive: 0.

Q: For DAPK3 (UniProt O43293), which “dose-dependent thermal stabilisation call” value is on record?
A: Its value is inactive: 0.

Q: DCBLD1 (UniProt Q8N8Z6) was tested. Which “dose-dependent thermal stabilisation call” value did it give?
A: The value was inactive: 0.

Q: CTR9 (UniProt Q6PD62) was tested. Which “dose-dependent thermal stabilisation call” value did it give?
A: The value was inactive: 0.

Q: How did the “dose-dependent thermal stabilisation call” value turn out when COX1 (UniProt P23219) was run?
A: Its value is inactive: 0.

Q: With CROCC (UniProt Q5TZA2) as the target, how does the “dose-dependent thermal stabilisation call” value read?
A: The value was inactive: 0.

Q: How did the “dose-dependent thermal stabilisation call” value turn out when DCP1A (UniProt Q9NPI6) was run?
A: Its value is inactive: 0.
